Experimental data from publication PMC8748510.
Positions count from the first letter of the chain named. Numbers in names are those of the source. These are yes or no findings as the source states them, for the method shown. In cells and extracts the contact can be indirect. Some binding calls cover weakened binding; strength is not graded here. For part of these data: Tags and fused reporters may be left off the sequences shown. One block for each binder: values may come before it.

The chains behind the UniProt entries cited, without tags or fusion partners.
UniProt O15105: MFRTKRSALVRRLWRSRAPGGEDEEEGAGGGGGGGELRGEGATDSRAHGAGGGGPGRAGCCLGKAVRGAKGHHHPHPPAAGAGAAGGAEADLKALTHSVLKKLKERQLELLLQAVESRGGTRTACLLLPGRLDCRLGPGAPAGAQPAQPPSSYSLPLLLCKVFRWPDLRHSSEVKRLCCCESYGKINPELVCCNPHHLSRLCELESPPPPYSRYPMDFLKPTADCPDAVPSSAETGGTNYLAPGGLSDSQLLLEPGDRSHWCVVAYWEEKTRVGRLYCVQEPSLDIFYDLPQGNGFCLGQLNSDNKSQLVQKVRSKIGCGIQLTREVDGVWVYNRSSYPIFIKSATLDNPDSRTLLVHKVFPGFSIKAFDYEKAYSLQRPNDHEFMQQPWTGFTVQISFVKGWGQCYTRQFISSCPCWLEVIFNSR

Legend:
Flag-SMAD7 = Flag-SMAD7 (UniProt O15105); test: co-IP; HEK293T cells co-transfected with Flag-SMAD7 and Myc-RNF12 wild-type or mutant plasmids; lysates 48 h post-transfection; anti-FLAG immunoprecipitation, anti-Myc western blotting
[1] = target: endogenous SMAD7 (human (endogenous; cells not named, all cell lines of the paper are human)) (UniProt O15105); test: co-IP; endogenous RNF12 and SMAD7; cells with or without the AKT inhibitor MK2206; cells and precipitating antibody not given

binding (Flag-SMAD7): binds
B1: Myc-RNF12 wild-type (protein, UniProt Q9NVW2 1-624)
chain: MENSDSNDKGSGDQSAAQRRSQMDRLDREEAFYQFVNNLSEEDYRLMRDNNLLGTPGESTEEELLRRLQQIKEGPPPQNSDENRGGDSSDDVSNGDSIIDWLNSVRQTGNTTRSGQRGNQSWRAVSRTNPNSGDFRFSLEINVNRNNGSQNSENENEPSARRSSGENVENNSQRQVENPRSESTSARPSRSERNSTEALTEVPPTRGQRRARSRSPDHRRTRARAERSRSPLHPMSEIPRRSHHSISSQTFEHPLVNETEGSSRTRHHVTLRQQISGPELLSRGLFAASGTRNASQGAGSSDTAASGESTGSGQRPPTIVLDLQVRRVRPGEYRQRDSIASRTRSRSQTPNNTVTYESERGGFRRTFSRSERAGVRTYVSTIRIPIRRILNTGLSETTSVAIQTMLRQIMTGFGELSYFMYSDSDSEPTGSVSNRNMERAESRSGRGGSGGGSSSGSSSSSSSSSSSSSSSSSSSSPSSSSGGESSETSSDLFEGSNEGSSSSGSSGARREGRHRAPVTFDESGSLPFLSLAQFFLLNEDDDDQPRGLTKEQIDNLAMRSFGENDALKTCSVCITEYTEGNKLRKLPCSHEYHVHCIDRWLSENSTCPICRRAVLASGNRESVV

binding (Flag-SMAD7): binds
B2: Myc-RNF12 S347A/T349A (protein, UniProt Q9NVW2 1-624)
chain: B1 chain with S347A, T349A

binding [1]: binds
B3: endogenous RNF12 (protein, UniProt Q9NVW2 1-624)
chain: B1 chain
